Reference: doi:10.1101/2022.10.12.511875
Where two headings read alike, the source gives them in different places. These are yes or no findings as the source states them, for the method shown. For some assays here: Binding seen in cells or lysates may run through a third protein. Some binding calls cover weakened binding; strength is not graded here. For some assays here: Tags and fused reporters may be left off the sequences shown.

Sequences of proteins named here, by UniProt entry; tags and fusion partners are left off. A change or cut given only in a name is not applied to a line headed by its entry. Residues count along the entry.
UniProt O04921: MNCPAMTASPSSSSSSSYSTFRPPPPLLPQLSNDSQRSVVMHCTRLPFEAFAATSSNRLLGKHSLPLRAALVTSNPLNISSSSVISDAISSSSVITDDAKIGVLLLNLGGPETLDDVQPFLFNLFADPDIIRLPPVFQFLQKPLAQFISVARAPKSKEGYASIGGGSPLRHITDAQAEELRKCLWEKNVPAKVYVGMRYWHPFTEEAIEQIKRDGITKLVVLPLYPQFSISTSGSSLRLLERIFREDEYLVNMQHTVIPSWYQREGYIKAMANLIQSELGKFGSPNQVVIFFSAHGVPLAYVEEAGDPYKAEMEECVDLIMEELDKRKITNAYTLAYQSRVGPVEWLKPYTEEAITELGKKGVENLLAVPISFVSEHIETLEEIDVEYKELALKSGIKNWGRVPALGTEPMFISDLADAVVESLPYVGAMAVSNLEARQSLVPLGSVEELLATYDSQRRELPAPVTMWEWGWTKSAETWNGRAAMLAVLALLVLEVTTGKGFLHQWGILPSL
UniProt Q940U6, residues 27-316: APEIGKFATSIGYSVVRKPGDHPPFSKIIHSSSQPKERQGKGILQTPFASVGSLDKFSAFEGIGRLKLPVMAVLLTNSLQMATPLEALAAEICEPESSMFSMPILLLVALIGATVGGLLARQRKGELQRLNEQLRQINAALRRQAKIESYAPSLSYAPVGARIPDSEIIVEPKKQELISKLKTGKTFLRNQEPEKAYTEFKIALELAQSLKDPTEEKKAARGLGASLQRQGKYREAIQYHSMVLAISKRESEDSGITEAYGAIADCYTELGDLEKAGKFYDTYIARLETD
UniProt P42043: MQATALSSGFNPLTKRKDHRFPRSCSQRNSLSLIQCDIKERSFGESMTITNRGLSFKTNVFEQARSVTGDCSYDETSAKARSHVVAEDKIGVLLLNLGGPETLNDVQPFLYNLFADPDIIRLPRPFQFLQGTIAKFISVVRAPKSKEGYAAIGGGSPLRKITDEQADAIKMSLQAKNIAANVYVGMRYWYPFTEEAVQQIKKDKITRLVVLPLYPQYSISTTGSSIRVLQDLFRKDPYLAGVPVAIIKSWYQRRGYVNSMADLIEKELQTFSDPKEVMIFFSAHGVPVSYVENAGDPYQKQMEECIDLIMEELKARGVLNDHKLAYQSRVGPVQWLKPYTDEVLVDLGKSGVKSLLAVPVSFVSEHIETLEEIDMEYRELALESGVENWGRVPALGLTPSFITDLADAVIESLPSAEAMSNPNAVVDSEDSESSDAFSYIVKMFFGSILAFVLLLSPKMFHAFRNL

How the values were obtained:
[1] = target: T1, protochlorophyllide oxidoreductase C (PORC), yeast split-ubiquitin fusion (Arabidopsis thaliana) (UniProt O48741); test: two-hybrid
T1 sequence: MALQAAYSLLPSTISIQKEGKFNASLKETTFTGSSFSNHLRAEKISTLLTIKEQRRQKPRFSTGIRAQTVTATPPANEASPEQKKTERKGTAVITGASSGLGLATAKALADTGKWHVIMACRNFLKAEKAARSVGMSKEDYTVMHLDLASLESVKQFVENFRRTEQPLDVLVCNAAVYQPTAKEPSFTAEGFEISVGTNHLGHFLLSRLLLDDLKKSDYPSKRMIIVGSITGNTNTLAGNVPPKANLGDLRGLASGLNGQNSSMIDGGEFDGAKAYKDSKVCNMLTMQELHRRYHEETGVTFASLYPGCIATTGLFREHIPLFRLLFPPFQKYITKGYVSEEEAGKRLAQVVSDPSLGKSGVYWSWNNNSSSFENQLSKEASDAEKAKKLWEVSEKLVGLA

[2] = target: T2, protochlorophyllide oxidoreductase A (PORA), yeast split-ubiquitin fusion (Arabidopsis thaliana) (UniProt Q42536); test: two-hybrid
T2 sequence: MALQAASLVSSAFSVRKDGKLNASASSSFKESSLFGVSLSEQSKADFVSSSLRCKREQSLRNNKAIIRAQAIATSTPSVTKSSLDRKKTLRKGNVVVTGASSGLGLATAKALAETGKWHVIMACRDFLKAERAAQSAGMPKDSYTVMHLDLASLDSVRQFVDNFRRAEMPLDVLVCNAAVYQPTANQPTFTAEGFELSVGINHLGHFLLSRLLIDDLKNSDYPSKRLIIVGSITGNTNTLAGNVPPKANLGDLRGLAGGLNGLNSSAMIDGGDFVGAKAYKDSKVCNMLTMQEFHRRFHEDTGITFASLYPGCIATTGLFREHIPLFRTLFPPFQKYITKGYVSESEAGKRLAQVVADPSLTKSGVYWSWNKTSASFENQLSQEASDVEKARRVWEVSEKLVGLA

[3] = target: T3, protochlorophyllide oxidoreductase B (PORB), yeast split-ubiquitin fusion (Arabidopsis thaliana) (UniProt P21218); test: two-hybrid
T3 sequence: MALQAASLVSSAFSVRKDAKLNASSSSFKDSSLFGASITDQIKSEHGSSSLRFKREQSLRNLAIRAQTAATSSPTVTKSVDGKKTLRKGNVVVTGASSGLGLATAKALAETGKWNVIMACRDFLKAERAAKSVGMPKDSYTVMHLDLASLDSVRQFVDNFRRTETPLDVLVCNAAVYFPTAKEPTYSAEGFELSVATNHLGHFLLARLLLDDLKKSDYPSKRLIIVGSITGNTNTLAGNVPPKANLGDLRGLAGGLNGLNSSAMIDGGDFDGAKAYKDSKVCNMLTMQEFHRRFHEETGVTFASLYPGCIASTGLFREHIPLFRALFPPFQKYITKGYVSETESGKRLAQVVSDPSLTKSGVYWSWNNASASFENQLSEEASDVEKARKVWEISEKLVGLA

[4] = target: ferrochelatase 2 (FC2), yeast split-ubiquitin fusion (Arabidopsis thaliana) (UniProt O04921); test: two-hybrid
[5] = target: T4, protochlorophyllide oxidoreductase B (PORB), BiFC fusion (Arabidopsis thaliana) (UniProt P21218); test: split reporter
T4 sequence: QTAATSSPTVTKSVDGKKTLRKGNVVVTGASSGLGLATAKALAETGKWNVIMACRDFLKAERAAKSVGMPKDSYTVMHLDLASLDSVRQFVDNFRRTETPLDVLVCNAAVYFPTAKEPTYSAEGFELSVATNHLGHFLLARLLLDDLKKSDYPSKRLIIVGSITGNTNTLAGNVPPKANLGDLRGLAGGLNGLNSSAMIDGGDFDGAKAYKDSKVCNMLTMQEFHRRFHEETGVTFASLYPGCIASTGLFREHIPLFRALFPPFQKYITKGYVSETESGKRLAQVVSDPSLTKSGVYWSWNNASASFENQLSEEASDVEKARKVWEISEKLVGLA

[6] = target: T5, protochlorophyllide oxidoreductase C (PORC), BiFC fusion (Arabidopsis thaliana) (UniProt O48741); test: split reporter
T5 sequence: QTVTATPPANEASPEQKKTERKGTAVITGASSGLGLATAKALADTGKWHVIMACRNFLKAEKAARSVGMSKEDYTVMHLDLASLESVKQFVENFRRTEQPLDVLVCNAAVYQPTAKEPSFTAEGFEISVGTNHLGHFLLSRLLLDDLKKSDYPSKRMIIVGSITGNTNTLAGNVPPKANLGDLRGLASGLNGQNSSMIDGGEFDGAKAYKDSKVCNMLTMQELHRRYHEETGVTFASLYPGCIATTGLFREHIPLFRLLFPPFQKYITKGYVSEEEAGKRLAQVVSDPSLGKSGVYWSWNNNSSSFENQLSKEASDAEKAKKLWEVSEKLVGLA

[7] = target: FLU (FLUORESCENT IN BLUE LIGHT), BiFC fusion (Arabidopsis thaliana) (UniProt Q940U6); test: split reporter
[8] = target: T6, protochlorophyllide oxidoreductase A (PORA), BiFC fusion (Arabidopsis thaliana) (UniProt Q42536); test: split reporter
T6 sequence: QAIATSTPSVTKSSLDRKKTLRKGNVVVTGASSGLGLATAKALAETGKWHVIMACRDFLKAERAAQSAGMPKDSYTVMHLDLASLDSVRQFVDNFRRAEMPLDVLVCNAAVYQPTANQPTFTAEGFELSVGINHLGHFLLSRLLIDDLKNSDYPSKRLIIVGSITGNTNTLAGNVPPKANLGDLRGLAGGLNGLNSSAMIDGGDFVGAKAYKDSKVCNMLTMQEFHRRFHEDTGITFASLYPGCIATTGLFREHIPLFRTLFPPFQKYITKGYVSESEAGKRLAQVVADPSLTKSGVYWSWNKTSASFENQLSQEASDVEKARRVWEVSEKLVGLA

[9] = target: T7, protoporphyrinogen oxidase 1 (PPO1), BiFC fusion (Arabidopsis thaliana) (UniProt P55826); test: split reporter
T7 sequence: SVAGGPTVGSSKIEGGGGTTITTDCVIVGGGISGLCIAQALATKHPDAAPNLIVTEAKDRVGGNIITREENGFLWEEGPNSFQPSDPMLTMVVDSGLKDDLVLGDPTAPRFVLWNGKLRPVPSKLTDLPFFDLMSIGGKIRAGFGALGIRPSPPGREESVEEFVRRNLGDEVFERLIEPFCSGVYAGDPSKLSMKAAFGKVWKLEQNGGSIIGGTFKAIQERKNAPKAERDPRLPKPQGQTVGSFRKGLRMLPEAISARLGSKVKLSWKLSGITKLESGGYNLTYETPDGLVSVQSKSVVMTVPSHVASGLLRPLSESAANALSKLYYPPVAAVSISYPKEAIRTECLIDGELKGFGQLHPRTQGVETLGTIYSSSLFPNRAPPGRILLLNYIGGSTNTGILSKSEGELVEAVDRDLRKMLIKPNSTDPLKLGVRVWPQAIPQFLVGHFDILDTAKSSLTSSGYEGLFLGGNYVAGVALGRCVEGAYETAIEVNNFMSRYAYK

[10] = target: FLU (FLUORESCENT IN BLUE LIGHT), BiFC fusion (Arabidopsis thaliana) (UniProt Q940U6); test: split reporter; remark: listed apart in the source

| Molecule | binding [1] | binding [2] | binding [3] | binding [4] | binding [5] | binding [6] | binding [7] | binding [8] | binding [9] | binding [10] |
| --- | --- | --- | --- | --- | --- | --- | --- | --- | --- | --- |
| ferrochelatase 1 (FC1), yeast split-ubiquitin fusion (from UniProt P42043 1-466) (enzyme) | no binding | no binding | no binding | binds |  |  |  |  |  |  |
| ferrochelatase 2 (FC2), BiFC fusion (from UniProt O04921 84-512) (enzyme) |  |  |  |  | binds | binds | binds | binds | binds |  |
| ferrochelatase 2 (FC2), yeast split-ubiquitin fusion (from UniProt O04921 1-512) (enzyme) | binds | binds | binds | binds |  |  |  |  |  |  |
| protochlorophyllide oxidoreductase B (PORB), BiFC fusion (enzyme, UniProt P21218 67-401) QTAATSSPTVTKSVDGKKTLRKGNVVVTGASSGLGLATAKALAETGKWNVIMACRDFLKAERAAKSVGMPKDSYTVMHLDLASLDSVRQFVDNFRRTETPLDVLVCNAAVYFPTAKEPTYSAEGFELSVATNHLGHFLLARLLLDDLKKSDYPSKRLIIVGSITGNTNTLAGNVPPKANLGDLRGLAGGLNGLNSSAMIDGGDFDGAKAYKDSKVCNMLTMQEFHRRFHEETGVTFASLYPGCIASTGLFREHIPLFRALFPPFQKYITKGYVSETESGKRLAQVVSDPSLTKSGVYWSWNNASASFENQLSEEASDVEKARKVWEISEKLVGLA |  |  |  |  |  |  |  |  |  | binds |
